# Assay results: paper doi:10.1101/2025.06.16.659956
# Chains of the proteins cited; added tags and fusions are not shown.
# UniProt Q6PDQ2: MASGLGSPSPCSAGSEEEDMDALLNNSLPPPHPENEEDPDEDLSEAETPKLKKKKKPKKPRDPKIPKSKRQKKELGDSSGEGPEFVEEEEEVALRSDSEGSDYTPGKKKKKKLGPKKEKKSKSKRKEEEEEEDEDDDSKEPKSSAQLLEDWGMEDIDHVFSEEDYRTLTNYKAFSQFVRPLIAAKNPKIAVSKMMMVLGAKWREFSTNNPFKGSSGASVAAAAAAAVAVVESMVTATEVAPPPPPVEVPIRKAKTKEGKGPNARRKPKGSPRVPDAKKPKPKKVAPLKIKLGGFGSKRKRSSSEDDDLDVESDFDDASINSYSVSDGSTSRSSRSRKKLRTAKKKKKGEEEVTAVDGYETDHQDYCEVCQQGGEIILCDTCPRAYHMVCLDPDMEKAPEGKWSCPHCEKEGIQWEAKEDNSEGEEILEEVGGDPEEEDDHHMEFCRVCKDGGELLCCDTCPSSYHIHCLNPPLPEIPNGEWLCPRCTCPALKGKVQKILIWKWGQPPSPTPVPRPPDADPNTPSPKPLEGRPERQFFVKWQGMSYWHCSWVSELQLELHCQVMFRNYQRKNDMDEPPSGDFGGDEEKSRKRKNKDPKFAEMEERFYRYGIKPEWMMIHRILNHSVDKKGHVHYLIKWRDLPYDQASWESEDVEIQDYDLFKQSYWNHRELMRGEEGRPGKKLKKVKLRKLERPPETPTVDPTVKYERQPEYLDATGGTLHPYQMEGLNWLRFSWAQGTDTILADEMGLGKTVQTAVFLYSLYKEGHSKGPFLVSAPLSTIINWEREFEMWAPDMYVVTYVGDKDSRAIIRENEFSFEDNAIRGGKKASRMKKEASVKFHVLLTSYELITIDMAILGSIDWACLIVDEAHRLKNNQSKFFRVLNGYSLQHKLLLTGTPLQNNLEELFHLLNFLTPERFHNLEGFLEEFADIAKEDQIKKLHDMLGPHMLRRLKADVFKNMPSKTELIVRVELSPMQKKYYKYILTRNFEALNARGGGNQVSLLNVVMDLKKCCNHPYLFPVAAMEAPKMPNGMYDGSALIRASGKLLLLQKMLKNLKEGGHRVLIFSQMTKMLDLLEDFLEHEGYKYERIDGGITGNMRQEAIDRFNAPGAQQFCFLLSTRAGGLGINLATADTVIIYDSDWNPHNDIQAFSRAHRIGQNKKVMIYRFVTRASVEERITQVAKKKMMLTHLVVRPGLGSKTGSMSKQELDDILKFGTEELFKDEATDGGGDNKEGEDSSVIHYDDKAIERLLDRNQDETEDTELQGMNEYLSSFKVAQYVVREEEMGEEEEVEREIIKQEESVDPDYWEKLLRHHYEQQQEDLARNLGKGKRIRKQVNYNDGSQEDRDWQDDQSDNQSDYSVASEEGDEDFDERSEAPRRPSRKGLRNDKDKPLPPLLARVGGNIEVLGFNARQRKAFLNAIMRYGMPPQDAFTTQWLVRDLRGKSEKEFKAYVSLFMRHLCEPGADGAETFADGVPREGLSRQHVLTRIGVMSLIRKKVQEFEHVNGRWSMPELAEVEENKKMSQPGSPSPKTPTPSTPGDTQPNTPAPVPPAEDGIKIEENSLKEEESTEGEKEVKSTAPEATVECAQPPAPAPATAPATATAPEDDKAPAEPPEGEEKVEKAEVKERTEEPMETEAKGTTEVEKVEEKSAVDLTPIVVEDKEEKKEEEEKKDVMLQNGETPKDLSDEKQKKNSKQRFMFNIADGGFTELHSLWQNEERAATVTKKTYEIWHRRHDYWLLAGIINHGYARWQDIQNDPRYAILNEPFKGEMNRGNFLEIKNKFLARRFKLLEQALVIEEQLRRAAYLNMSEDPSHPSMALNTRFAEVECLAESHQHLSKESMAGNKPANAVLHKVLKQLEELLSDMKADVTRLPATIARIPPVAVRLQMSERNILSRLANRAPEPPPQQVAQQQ
# UniProt P13864: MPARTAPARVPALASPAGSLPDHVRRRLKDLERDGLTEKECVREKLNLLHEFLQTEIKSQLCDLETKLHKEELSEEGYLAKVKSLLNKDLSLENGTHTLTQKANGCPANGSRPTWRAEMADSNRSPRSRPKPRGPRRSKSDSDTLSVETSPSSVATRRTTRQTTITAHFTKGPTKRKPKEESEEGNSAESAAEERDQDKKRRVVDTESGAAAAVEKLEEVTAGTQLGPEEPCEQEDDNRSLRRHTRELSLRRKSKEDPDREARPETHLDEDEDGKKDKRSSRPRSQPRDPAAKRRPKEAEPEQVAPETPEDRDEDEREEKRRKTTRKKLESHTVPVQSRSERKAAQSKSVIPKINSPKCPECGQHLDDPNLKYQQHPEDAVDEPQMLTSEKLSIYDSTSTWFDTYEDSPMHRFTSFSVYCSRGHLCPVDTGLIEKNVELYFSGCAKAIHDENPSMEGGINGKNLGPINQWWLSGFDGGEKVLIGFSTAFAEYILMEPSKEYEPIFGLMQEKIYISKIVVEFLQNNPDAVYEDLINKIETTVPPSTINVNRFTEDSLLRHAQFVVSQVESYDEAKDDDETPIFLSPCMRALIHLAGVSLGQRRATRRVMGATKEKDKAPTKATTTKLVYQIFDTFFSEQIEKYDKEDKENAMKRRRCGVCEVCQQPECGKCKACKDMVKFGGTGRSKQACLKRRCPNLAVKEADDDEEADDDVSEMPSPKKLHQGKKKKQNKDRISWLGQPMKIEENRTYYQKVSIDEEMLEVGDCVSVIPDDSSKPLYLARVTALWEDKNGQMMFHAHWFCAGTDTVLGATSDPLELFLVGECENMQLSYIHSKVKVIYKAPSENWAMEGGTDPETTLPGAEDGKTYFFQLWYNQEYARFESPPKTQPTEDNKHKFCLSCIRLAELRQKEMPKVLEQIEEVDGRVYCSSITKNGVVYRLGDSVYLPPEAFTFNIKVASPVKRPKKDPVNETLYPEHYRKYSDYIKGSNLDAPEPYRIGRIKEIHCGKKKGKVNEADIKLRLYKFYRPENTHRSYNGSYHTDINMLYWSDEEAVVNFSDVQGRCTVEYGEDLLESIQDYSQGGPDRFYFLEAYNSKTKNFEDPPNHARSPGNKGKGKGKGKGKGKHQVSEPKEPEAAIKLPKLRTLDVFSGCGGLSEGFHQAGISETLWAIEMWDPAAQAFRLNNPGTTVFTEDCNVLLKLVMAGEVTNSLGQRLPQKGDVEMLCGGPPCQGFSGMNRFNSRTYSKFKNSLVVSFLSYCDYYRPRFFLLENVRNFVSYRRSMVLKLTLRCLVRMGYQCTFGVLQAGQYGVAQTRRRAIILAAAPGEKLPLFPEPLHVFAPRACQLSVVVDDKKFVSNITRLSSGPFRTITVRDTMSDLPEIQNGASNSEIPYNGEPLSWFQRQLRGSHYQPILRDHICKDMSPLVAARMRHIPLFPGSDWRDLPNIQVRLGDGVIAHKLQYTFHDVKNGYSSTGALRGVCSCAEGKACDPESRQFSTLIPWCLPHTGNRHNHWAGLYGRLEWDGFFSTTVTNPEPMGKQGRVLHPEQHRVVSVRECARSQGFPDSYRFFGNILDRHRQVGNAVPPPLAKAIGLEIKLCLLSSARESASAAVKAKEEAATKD
# UniProt P70288: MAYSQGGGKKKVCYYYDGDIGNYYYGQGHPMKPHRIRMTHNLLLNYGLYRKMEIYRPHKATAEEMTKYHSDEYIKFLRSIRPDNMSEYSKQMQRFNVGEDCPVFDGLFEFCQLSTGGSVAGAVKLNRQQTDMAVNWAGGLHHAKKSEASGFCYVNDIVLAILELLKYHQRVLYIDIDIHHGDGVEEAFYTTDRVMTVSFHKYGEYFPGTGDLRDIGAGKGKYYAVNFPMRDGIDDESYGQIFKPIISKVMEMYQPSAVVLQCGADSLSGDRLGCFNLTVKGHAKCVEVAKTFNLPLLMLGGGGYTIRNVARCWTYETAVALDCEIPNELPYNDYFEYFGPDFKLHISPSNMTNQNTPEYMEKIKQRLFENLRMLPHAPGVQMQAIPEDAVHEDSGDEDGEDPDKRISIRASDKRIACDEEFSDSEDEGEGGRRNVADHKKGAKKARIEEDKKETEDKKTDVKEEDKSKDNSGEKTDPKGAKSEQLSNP
# UniProt P52946: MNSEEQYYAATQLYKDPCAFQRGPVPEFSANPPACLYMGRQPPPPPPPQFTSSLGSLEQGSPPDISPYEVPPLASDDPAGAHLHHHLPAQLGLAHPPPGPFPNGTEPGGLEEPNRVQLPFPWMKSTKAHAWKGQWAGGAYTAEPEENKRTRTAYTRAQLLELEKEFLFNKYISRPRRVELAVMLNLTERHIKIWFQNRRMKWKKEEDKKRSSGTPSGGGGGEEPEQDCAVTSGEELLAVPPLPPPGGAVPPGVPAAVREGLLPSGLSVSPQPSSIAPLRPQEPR
# UniProt Q8K4B0: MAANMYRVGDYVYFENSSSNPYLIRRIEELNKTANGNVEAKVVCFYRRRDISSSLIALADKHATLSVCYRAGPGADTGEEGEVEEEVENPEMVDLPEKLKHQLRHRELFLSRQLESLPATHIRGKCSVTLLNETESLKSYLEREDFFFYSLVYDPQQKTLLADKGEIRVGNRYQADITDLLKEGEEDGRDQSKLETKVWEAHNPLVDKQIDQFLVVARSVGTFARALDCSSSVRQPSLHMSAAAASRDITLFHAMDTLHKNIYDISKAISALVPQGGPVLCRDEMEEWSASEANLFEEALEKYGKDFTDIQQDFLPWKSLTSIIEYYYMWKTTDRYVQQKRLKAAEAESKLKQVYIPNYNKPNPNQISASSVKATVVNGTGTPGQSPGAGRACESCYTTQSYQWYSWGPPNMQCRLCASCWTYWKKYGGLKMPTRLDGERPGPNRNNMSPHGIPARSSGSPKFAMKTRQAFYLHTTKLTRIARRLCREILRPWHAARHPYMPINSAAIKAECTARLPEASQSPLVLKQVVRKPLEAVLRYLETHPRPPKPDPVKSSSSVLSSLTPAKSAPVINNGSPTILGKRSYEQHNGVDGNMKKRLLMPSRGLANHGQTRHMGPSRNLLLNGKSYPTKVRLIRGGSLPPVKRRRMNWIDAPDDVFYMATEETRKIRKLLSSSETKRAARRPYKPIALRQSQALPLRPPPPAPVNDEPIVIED
# UniProt Q9R190: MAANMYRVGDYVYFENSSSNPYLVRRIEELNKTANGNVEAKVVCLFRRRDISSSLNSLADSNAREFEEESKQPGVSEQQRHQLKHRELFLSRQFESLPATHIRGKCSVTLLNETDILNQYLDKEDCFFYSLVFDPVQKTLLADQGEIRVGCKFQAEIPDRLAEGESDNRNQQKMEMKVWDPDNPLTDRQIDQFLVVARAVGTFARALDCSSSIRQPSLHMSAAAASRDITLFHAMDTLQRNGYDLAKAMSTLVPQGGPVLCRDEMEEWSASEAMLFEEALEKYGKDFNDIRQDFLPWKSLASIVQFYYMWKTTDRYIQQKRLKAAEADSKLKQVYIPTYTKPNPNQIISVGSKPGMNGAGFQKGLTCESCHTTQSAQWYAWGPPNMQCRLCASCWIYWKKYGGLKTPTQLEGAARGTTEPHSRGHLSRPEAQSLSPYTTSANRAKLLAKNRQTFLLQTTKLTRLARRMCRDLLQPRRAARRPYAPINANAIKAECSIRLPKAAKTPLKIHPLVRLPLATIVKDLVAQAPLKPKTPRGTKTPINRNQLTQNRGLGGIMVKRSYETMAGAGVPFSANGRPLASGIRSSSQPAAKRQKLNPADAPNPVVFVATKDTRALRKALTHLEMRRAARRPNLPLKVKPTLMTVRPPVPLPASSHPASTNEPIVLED
# UniProt Q924K8: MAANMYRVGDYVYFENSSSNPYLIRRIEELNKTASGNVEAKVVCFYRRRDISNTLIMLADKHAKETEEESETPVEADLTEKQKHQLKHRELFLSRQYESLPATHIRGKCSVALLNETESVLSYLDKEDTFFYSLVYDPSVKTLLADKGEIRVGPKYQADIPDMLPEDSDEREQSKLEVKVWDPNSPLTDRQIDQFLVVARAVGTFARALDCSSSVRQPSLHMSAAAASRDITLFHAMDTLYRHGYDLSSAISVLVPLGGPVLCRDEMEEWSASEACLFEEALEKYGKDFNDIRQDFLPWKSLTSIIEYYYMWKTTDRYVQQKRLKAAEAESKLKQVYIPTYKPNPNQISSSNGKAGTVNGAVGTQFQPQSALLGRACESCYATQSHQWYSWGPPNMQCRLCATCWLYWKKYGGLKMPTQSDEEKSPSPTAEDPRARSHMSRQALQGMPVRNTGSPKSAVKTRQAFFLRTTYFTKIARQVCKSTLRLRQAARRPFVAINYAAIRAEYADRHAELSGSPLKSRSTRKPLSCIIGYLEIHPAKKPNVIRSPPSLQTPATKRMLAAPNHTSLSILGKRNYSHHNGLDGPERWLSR
# Results are given in words; binding and its absence hold for the method and conditions named. In cells and extracts the contact can be indirect. A yes stands for co-enrichment or nearness to the bait. Other partners may have been found. For some of these results: Tags and fused reporters may be left off the sequences shown.
# T1: 3x Myc-NKX2.2 WT (full-length NKX2.2 with 3 myc epitope tags at the N-terminus) (UniProt P42586)
# T1 sequence: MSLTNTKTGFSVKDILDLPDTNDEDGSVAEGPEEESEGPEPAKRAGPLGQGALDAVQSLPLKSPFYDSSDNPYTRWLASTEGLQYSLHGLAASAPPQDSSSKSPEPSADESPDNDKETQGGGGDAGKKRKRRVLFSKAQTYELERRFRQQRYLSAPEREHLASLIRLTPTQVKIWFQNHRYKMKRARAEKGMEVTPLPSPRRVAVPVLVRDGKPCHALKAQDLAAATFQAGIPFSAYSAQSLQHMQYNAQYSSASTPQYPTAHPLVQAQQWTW
# B1: endogenous NKX2.2 (protein, UniProt P42586 1-273)
# chain: T1 sequence
# Molecular target: Chromodomain Helicase DNA-binding Protein 4 (CHD4) (mouse (endogenous in MIN6)) (UniProt Q6PDQ2)
# Test: affinity purification with mass spectrometry
row,Molecule,binding
1,B1,binds

# Molecular target: T1, 3x Myc-NKX2.2 WT (full-length NKX2.2 with 3 myc epitope tags at the N-terminus)
# Test: affinity purification with mass spectrometry
row,Molecule,binding
1,Chromodomain Helicase DNA-binding Protein 4 (CHD4) (from UniProt Q6PDQ2 1-1915),binds
2,DNMT1 (from UniProt P13864 1-1620),binds
3,HDAC2 (from UniProt P70288 1-488),binds
4,Histone deacetylase 1 (HDAC1) (from UniProt O09106 1-482),binds
5,Pancreas Duodenum Homeobox1 (PDX1) (from UniProt P52946 1-284),binds

# Molecular target: Chromodomain Helicase DNA-binding Protein 4 (CHD4) (mouse (endogenous in MIN6)) (UniProt Q6PDQ2)
# Test: affinity purification with mass spectrometry
# Remark: another data set of the same source
row,Molecule,binding
1,DNMT1 (from UniProt P13864 1-1620),binds
2,MTA1 (from UniProt Q8K4B0 1-715),binds
3,MTA2 (from UniProt Q9R190 1-668),binds
4,MTA3 (from UniProt Q924K8 1-591),binds
